Results as given in the M2OR odorant receptor database.
Positions count from the first letter of the chain named. Only a part is listed here, and it is no random draw. The calls were merged from several studies; some rest on single wells. Some of the results follow.

Chains of the proteins cited; added tags and fusions are not shown. Chains listed by the source or under a name are the forms on record and can include a tag or linker.
OR1D2, as listed by the source: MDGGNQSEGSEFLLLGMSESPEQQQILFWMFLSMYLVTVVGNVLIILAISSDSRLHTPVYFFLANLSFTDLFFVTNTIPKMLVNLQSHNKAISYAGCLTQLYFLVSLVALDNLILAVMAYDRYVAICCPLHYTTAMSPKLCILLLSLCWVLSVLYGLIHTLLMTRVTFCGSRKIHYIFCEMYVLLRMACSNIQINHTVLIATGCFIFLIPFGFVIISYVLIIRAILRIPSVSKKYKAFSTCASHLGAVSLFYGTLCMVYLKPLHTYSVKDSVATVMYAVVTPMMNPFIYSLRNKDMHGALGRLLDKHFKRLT
OR1E2, as listed by the source: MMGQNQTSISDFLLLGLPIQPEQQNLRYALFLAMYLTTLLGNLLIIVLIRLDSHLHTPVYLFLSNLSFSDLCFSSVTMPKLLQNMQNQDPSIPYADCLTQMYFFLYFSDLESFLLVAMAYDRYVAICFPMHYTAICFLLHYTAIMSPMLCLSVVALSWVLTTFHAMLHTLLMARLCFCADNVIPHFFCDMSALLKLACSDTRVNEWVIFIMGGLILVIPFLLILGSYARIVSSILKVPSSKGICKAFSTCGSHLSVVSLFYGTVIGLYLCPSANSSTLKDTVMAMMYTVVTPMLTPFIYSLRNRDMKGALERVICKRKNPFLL

How the values were obtained:
Settings in all cases: stereoisomer not certain
OR1C1 (Homo sapiens) = target: T1, OR1C1 (Homo sapiens) (UniProt Q15619)
T1 sequence (whole entry): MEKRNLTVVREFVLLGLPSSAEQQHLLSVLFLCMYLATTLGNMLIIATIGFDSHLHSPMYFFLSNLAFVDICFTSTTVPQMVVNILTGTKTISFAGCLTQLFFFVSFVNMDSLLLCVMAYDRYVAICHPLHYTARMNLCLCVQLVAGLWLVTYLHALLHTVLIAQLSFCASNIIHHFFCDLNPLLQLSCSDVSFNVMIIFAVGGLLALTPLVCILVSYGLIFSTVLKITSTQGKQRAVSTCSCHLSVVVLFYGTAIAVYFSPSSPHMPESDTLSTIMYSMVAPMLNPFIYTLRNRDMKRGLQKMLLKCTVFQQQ
Outline: (§1)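 Each receptor–molecule pair is labelled responsive or non-responsive (inactive) according to whether the original authors judged the measured signal statistically different from baseline. The data were taken from the main text and supplementary material of published papers and checked for typos and inconsistencies. Assay methods differed by source, with transient luciferase assays in mammalian cell lines being common.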

OR1D2 (Homo sapiens) = target: T2, OR1D2 (Homo sapiens) (UniProt P34982)
T2 sequence (whole entry): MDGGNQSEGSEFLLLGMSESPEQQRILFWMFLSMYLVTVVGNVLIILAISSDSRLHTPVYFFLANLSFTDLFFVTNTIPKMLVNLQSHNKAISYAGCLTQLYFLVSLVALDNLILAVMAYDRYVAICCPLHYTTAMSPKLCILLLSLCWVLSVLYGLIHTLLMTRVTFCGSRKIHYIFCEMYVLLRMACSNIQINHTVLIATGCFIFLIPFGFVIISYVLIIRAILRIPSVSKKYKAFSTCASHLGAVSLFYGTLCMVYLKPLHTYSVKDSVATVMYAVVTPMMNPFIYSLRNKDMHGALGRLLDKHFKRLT
Outline: as §1

OR1D2 [1] = tested on: OR1D2
Outline: as §1

OR1D2 [2] = tested on: OR1D2; remark: listed apart in the source
Outline: as §1

OR1D2 [3] = tested on: OR1D2; remark: listed apart in the source
Outline: as §1

OR1D2 [4] = tested on: OR1D2; remark: listed apart in the source
Outline: as §1

OR1D5 (Homo sapiens) = target: T3, OR1D5 (Homo sapiens) (UniProt P58170)
T3 sequence (whole entry): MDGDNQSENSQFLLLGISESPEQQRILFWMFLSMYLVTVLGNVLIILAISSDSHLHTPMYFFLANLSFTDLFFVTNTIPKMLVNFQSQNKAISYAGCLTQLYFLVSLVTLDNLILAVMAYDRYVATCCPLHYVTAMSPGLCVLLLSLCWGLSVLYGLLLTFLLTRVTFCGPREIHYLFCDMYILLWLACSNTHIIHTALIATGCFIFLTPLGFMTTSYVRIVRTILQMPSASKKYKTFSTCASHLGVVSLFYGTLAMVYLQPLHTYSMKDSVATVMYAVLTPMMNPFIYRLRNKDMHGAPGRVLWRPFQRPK
Outline: as §1

OR1D5 = tested on: T4, OR1D5
T4 sequence (whole entry): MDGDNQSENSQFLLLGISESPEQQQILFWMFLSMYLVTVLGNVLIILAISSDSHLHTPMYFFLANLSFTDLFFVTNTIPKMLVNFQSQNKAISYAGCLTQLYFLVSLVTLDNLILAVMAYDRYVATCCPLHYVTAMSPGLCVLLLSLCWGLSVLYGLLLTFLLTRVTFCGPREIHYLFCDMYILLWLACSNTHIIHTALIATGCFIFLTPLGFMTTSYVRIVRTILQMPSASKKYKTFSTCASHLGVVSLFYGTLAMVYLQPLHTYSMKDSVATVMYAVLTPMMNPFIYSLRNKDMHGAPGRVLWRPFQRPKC
Outline: as §1

OR1E1 [5] = tested on: T5, OR1E1
T5 sequence (whole entry): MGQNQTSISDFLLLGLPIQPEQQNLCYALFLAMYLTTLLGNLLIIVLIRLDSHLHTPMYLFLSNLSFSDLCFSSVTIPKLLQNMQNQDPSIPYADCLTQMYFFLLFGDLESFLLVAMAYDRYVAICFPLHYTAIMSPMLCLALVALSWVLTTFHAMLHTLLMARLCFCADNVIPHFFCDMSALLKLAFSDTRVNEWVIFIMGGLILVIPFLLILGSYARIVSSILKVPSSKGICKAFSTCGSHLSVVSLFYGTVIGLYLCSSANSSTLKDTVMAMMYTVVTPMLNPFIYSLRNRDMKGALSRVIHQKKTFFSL
Outline: as §1

OR1E1 [6] = tested on: T6, OR1E1; remark: listed apart in the source
T6 sequence (whole entry): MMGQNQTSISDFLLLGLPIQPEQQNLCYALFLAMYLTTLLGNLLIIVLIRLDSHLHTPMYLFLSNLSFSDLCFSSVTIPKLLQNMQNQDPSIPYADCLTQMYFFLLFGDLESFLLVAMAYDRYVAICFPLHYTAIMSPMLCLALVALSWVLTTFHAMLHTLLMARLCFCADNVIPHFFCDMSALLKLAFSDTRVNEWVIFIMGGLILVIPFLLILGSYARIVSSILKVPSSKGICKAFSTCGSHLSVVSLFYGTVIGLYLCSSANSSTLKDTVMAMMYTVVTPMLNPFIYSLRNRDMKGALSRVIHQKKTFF
Outline: as §1

OR1E2 (Homo sapiens) = target: T7, OR1E2 (Homo sapiens) (UniProt P47887)
T7 sequence (whole entry): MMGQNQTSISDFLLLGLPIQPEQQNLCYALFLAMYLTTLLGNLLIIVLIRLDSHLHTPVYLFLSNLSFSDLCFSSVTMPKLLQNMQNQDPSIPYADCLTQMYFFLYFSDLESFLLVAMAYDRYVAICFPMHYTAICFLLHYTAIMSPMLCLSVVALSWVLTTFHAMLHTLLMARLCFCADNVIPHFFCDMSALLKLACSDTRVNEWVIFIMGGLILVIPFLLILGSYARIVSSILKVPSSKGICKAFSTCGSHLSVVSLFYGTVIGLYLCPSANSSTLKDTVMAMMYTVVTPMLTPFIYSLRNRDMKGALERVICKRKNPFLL
Outline: as §1

OR1E2 = tested on: T8, OR1E2
T8 sequence (whole entry): T7 sequence (whole entry) with C27R
Outline: as §1

Measured: odorant receptor agonist call

CC(=O)OCC=C(C)CCC=C(C)C
active: OR1D2 (Homo sapiens) | OR1D2 [3] | OR1D5
inactive: all other assays above

CCCCCC(C)=O
inactive: OR1C1 (Homo sapiens) | OR1D2 (Homo sapiens) | OR1D5 (Homo sapiens) | OR1E1 [5] | OR1E1 [6] | OR1E2 (Homo sapiens) | OR1E2

C=CCSCC=C
not listed: OR1D2 [1] | OR1D2 [2] | OR1D2 [3] | OR1D2 [4]
inactive: all other assays above

COC(=O)c1ccccc1O
not listed: OR1D2 [1] | OR1D2 [2] | OR1D2 [3] | OR1D2 [4]
inactive: all other assays above

C=C(C)C1CCC2=CC(=O)CC(C)C2(C)C1 (stereo unspecified)
inactive: OR1D5

CCCCCOC(C)=O
active: OR1C1 (Homo sapiens)
not listed: OR1D2 [1] | OR1D2 [2] | OR1D2 [3] | OR1D2 [4]
inactive: all other assays above

CC(C)CC(=O)O
active: OR1E1 [6]
not listed: OR1D2 [1] | OR1D2 [2] | OR1D2 [3] | OR1D2 [4]
inactive: all other assays above

COc1cc(C)ccc1O
not listed: OR1D2 [1] | OR1D2 [2] | OR1D2 [3] | OR1D2 [4]
inactive: all other assays above

CC(C)CCC(=O)O
not listed: OR1D2 [1] | OR1D2 [2] | OR1D2 [3] | OR1D2 [4]
inactive: all other assays above

O=C1CCCCCCCCCCCC(=O)OCCO1
active: OR1D5 (Homo sapiens)
not listed: OR1D2 [1] | OR1D2 [2] | OR1D2 [3] | OR1D2 [4]
inactive: all other assays above

CC1=NC(C)SC1C (stereo unspecified)
inactive: OR1C1 (Homo sapiens) | OR1D2 (Homo sapiens) | OR1D5 (Homo sapiens) | OR1E1 [5] | OR1E1 [6] | OR1E2 (Homo sapiens) | OR1E2

CCCCCC(=O)O
not listed: OR1D2 [1] | OR1D2 [2] | OR1D2 [3] | OR1D2 [4]
inactive: all other assays above

CCCCCCOC(=O)CCC
not listed: OR1D2 [1] | OR1D2 [2] | OR1D2 [3] | OR1D2 [4]
inactive: all other assays above

CC(C)(C)c1ccc(CCC=O)cc1
active: OR1D2 (Homo sapiens)
not listed: OR1D2 [1] | OR1D2 [2] | OR1D2 [3] | OR1D2 [4]
inactive: all other assays above

CC12C=CCC1C1CCC3=CC(=O)CCC3(C)C1CC2 (stereo unspecified)
not listed: OR1D2 [1] | OR1D2 [2] | OR1D2 [3] | OR1D2 [4]
inactive: all other assays above

CCC=CCCO
not listed: OR1D2 [1] | OR1D2 [2] | OR1D2 [3] | OR1D2 [4]
inactive: all other assays above

CCCCCCCCOC(C)=O
not listed: OR1D2 [1] | OR1D2 [2] | OR1D2 [3] | OR1D2 [4]
inactive: all other assays above

CCCCCCCC=CC=O
active: OR1C1 (Homo sapiens)
not listed: OR1D2 [1] | OR1D2 [2] | OR1D2 [3] | OR1D2 [4]
inactive: all other assays above

O=C1CCCCC1
inactive: OR1C1 (Homo sapiens) | OR1D2 (Homo sapiens) | OR1D5 (Homo sapiens) | OR1E1 [5] | OR1E1 [6] | OR1E2 (Homo sapiens) | OR1E2

O=CCc1ccccc1
active: OR1D2 (Homo sapiens) | OR1D5
inactive: OR1C1 (Homo sapiens) | OR1D5 (Homo sapiens) | OR1E1 [5] | OR1E1 [6] | OR1E2 (Homo sapiens) | OR1E2

CCCCCCCC=O
not listed: OR1D2 [1] | OR1D2 [2] | OR1D2 [3] | OR1D2 [4]
inactive: all other assays above

CC(C)(O)CCCC1=CCC(C=O)CC1 (stereo unspecified)
inactive: OR1D5

CC(=O)c1ccccc1
inactive: OR1C1 (Homo sapiens) | OR1D2 (Homo sapiens) | OR1D5 (Homo sapiens) | OR1E1 [5] | OR1E1 [6] | OR1E2 (Homo sapiens) | OR1E2

COC(=O)c1ccccc1
active: OR1C1 (Homo sapiens)
inactive: OR1D2 (Homo sapiens) | OR1D5 (Homo sapiens) | OR1E1 [5] | OR1E1 [6] | OR1E2 (Homo sapiens) | OR1E2

CC(=O)OC(C)(C)C1CC=C(C)CC1 (stereo unspecified)
not listed: OR1D2 [1] | OR1D2 [2] | OR1D2 [3] | OR1D2 [4]
inactive: all other assays above

CC=Cc1ccc(O)c(OC)c1
inactive: OR1C1 (Homo sapiens) | OR1D2 (Homo sapiens) | OR1D5 (Homo sapiens) | OR1E1 [6] | OR1E2 (Homo sapiens) | OR1E2
active: OR1D5 | OR1E1 [5]

C=CCc1ccc(OC)c(OC)c1
not listed: OR1D2 [1] | OR1D2 [2] | OR1D2 [3] | OR1D2 [4]
inactive: all other assays above
